# Assay results taken from PubChem BioAssay AID2685 (National Center for Advancing Translational Sciences (NCATS), 2010).
# The other results are listed elsewhere or left out. These are further read-outs of the screen, such as a control signal, another cell line or another target. No call is given for them. Compounds called inactive in the main read-out are mostly missing here. The note in brackets gives the kind of curve behind each potency; many fits are weak.
# Assay: qHTS Assay for Lipid Storage Modulators in Drosophila S3 Cells;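 on cell number change: cells counted by Cell Tracker Red CMTPX staining in the red channel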
# Conditions: BODIPY lipid droplet fluorescence, 18-24 h; for cell number change: measured here: cell count max response, cells fed with added oleic acid
# In short: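 Drosophila S3 cells got compounds at several concentrations plus oleic acid (400 uM solution). Laser-scanning cytometry with 488 nm excitation read lipid droplets at 500-530 nm and cells at 575-640 nm. Percent activity was relative to 20 uM Triacsin C.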
# [1] = measured here: cell number channel AC50, cells fed with added oleic acid
# [2] = measured here: lipid fluorescence (Fed channel) AC50, cells fed with added oleic acid
Structure (SMILES),AC50 [1],AC50 [2],cell number change [%]
Cc1cccc(-c2nc(CSCC(=O)NCc3cccs3)c(C)o2)c1,"2.31 µM [rising, single point]","1.84 µM [rising, partial curve]",–
CCc1ccc(NC(=O)CNC(=O)[C@@H]2Cc3ccccc3CN2)cc1,–,"4.11 µM [rising, single point]",3.07
O=C(COC(=O)CCC(=O)c1ccc(F)cc1)Nc1cccc(S(=O)(=O)N2CCOCC2)c1,"0.103 µM [falling, full curve, poor fit]","5.8 µM [falling, full curve]",-31.7
O=c1cc(CN2CCOCC2)c2ccc(O)c(O)c2o1,"4.61 µM [rising, partial curve]","16.4 µM [rising, partial curve]",36.2
O=S(=O)(Nc1nc2ccccc2nc1N1CCN(c2ccccn2)CC1)c1ccc(Cl)cc1,"29.1 µM [falling, single point]",–,-95.1
CCC(=O)N1CCc2cc(Br)cc(S(=O)(=O)CCC(=O)NCCc3ccccc3)c21,"2.59 µM [rising, partial curve]",–,–
CCc1ccc(-c2nc(CN3CCC(C(=O)NCc4ccccc4OC)CC3)c(C)o2)cc1,–,"14.6 µM [falling, partial curve]",–
CC(C)C(=O)Nc1ccc(C(=O)Nc2nnc(C(C)C)s2)cc1,–,–,-26.2
CCc1cc(=O)oc2cc(OCC(=O)NCCCN3CCCC3=O)c(Cl)cc12,–,"23.1 µM [falling, partial curve]",–
CC(=O)c1ccc(OCCCC(=O)OCC(=O)Nc2c(C)nn(-c3ccccc3)c2C)cc1,–,–,18.4
COc1ccc(C(=O)NC(=S)NNC(=O)c2cccnc2)cc1,–,"0.58 µM [falling, single point]",-5.65
C=CCNC(=O)N[C@@H](CCSC)C(=O)OC,–,"0.103 µM [rising, single point]",–
O=C(CSc1nnc(-c2ccncc2)n1-c1ccccc1)NCC1CCCO1 (stereo unspecified),–,"6.51 µM [rising, single point]",17.5
Cc1cc(C(=O)C(=O)N(C)C)c(C)n1-c1ccc(Cl)cc1,"14.6 µM [rising, single point]","29.1 µM [rising, partial curve, poor fit]",44.2
COc1cccc(CNC(=O)CCn2c(=O)oc3ccccc32)c1,"32.6 µM [falling, partial curve, poor fit]",–,-71.2
COc1cc(OC)cc(C(=O)N2CCC(N3CCCCCC3)CC2)c1,–,"0.00517 µM [rising, full curve, poor fit]",20.3
O=C1OCCC1Sc1nnc(-c2cccnc2)n1-c1ccccc1F (stereo unspecified),–,–,0.988
Cc1cccc2c1-c1sc(C(=O)N3CCc4ccccc4C3)cc1CO2,–,"11.6 µM [rising, partial curve, poor fit]",18.3
COC(=O)C1(CC2CC(c3ccncc3)=NO2)CCN(C(=O)OC(C)(C)C)CC1 (stereo unspecified),–,"0.00461 µM [falling, full curve, poor fit]",-2.18

# Filtered by structure, those above with fluorine
Structure (SMILES),AC50 [1],AC50 [2],cell number change [%]
O=C(COC(=O)CCC(=O)c1ccc(F)cc1)Nc1cccc(S(=O)(=O)N2CCOCC2)c1,"0.103 µM [falling, full curve, poor fit]","5.8 µM [falling, full curve]",-31.7
O=C1OCCC1Sc1nnc(-c2cccnc2)n1-c1ccccc1F (stereo unspecified),–,–,0.988

# More results follow.

Structure (SMILES),AC50 [1],AC50 [2],cell number change [%]
C=CCSc1nnc(NC(=O)CSc2nnc(C)s2)s1,–,–,17.9
Cc1cc(NC(=O)CSc2nc(Cc3ccc(O)cc3)c(C)[nH]2)no1,–,–,1.81
CC(C)(C)NC(=O)c1ccc2c(c1)C1C3CCC(C3)C1C(c1ccccc1)N2 (stereo unspecified),"1.16 µM [falling, full curve, poor fit]","11.6 µM [falling, partial curve, poor fit]",-33.2
COc1ccc(CCNC(=O)CNC(=O)Cn2cnc3sc(C)c(C)c3c2=O)cc1OC,"29.1 µM [rising, single point]","4.61 µM [rising, full curve]",48.2
CCCCNC(=S)NC(C)(C)CO,–,–,-40.8
O=C(CSc1nnc(Cc2ccsc2)o1)c1ccccc1,–,"9.2 µM [rising, single point]",19.1
CCCCCOc1ccc(Cl)cc1CN1CCOCC1,"5.8 µM [falling, full curve, poor fit]","20.6 µM [falling, single point]",-30.6
Clc1ccc(-c2csc(N/N=C\c3cccnc3)n2)cc1,–,"9.2 µM [rising, partial curve]",-14.6
Cc1ccc(-n2c(SCC(=O)NCc3ccc4c(c3)OCO4)nnc2-c2cccnc2)c(C)c1,–,"4.11 µM [falling, single point]",-9.16
O=C(c1c[nH]c2ccccc12)C(O)C(c1ccccc1)N1CCOCC1 (stereo unspecified),–,"6.51 µM [rising, single point]",18
COc1ccc(-n2nc(C(=O)NCC(=O)NCc3ccco3)c3ccccc3c2=O)cc1Cl,–,"0.13 µM [falling, full curve, poor fit]",-27
CC(=O)Nc1ccc(S(=O)(=O)Nc2cc(S(=O)(=O)N3CCCCC3)ccc2O)cc1,–,–,-9.64
Cc1cc(C)cc(NC(=O)c2nccnc2C(=O)O)c1,–,"2.31 µM [rising, single point]",9.69
CCOC(=O)c1cn2nc(Oc3cccc(F)c3)ccc2n1,"0.82 µM [falling, full curve, poor fit]","29.1 µM [falling, partial curve, poor fit]",-26.1
Cc1ccc2nc(-c3ccc(NC(=O)CN4CCN(C(=O)c5ccco5)CC4)cc3)sc2c1,–,"1.84 µM [rising, full curve]",13.1
CCOc1ccc(C2C=C(c3ccc(C)cc3)Nc3nnnn32)cc1 (stereo unspecified),–,"1.64 µM [falling, single point]",-17.2
Cn1c(=O)c2cn(-c3cccc4ccccc34)cc2n(C)c1=O,"0.651 µM [rising, full curve, poor fit]","10.3 µM [rising, partial curve]",20.7
O=C(CC(=O)Nc1ccccc1[N+](=O)[O-])Nc1ccccc1[N+](=O)[O-],–,–,26.1
COc1ccc(C(=O)Nc2ccccc2N2CCN(C(=O)c3ccccc3)CC2)cc1Br,–,"20.6 µM [falling, partial curve]",–
